Data on 80 compounds can be found in the supplement of paper PMC9877034.

Structures are written as SMILES. Where a name gives a salt, the structure may show the parent alone. Whole data set: some 1,000 compounds, median “cFRET/donor change relative to DMSO, normalised to beta-lapachone positive control (supercomplex I-IV assembly)” near 0.18, cut for the lowest 2% near -1. The list shows a part of the results.

In the assay the test system is C2C12 (NDUFB8-AcGFP / COX8A-DsRed-Monomer FRET reporter). Briefly: cFRET/donor change relative to DMSO, normalised to beta-lapachone positive control (supercomplex I-IV assembly) (fraction of beta-lapachone effect); higher = more respiratory supercomplex assembly. Conditions: 40 µM; 24 h. As to the method: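 Cells were treated with 40 uM compound for 24 h and imaged on an IN Cell Analyzer 6000. Corrected FRET was divided by donor signal (cFRET/donor) and measured in two replicate experiments. The score is (mean cFRET/donor of compound - mean DMSO) / (mean beta-lapachone 40 uM - mean DMSO). Compounds flagged for prominent cell death, abnormal morphology or decreased cell number were excluded.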
`CCCCOc1cc(CC2CNC(=O)N2)ccc1OC` (stereo not given) had a cFRET/donor change of 0.0817.

Compound `CN(C)CCCN1c2ccccc2Sc2ccc(Cl)cc21` [Chlorpromazine hydrochloride] came in with a cFRET/donor change of 0.39.

On to `Nc1ccn([C@@H]2O[C@H](CO)[C@@H](O)[C@@H]2O)c(=O)n1` [Cytosine-1-beta-D-arabinofuranoside hydrochloride], for which the cFRET/donor change is -0.147.

`Nc1ncnc2c1ncn2C1CCCO1` (stereo not given) gave a cFRET/donor change of -0.23.

On to `N[C@@H](Cc1ccc(O)c(I)c1)C(=O)O` [3-Iodo-L-tyrosine], for which the cFRET/donor change was 0.0637.

The compound `COc1ccc(CCNc2nc(N3CCc4cc(OC)c(OC)cc4C3)c3cc(OC)c(OC)cc3n2)cc1OC` showed a cFRET/donor change of 0.14.

For `CCCN(CCc1ccccc1)C1CCc2c(O)cccc2C1` (racemic) [(±)-PPHT hydrochloride], the cFRET/donor change worked out at 0.728.

Compound `Cc1ccc(S(=O)(=O)NC(=O)NN2CCCCCC2)cc1` [Tolazamide] gave a cFRET/donor change of 0.182.

As to `C=CCn1c(=O)c2c(nc(-c3ccc(S(=O)(=O)O)cc3)n2C)n(C)c1=O` [1-Allyl-3,7-dimethyl-8-p-sulfophenylxanthine], the cFRET/donor change was -0.00281.

Compound `C[N+](C)(C)CCOC(=O)CCC(=O)OCC[N+](C)(C)C` [Succinylcholine chloride] came in with a cFRET/donor change of 0.179.

In turn, `CCN1CCc2nc(N)oc2CC1` [B-HT 933 dihydrochloride] gave a cFRET/donor change of 0.0293.

As to `CN(C)c1ccc(O)c2c1C[C@H]1C[C@H]3[C@H](N(C)C)C(O)=C(C(N)=O)C(=O)[C@@]3(O)C(O)=C1C2=O` [Minocycline hydrochloride], the cFRET/donor change is -0.869.

Compound `CCCCCCCCCC(=O)NC(CN1CCOCC1)[C@H](O)c1ccccc1` (mixture of isomers) returned a cFRET/donor change of 0.453.

For the compound `CN(Cc1cnc2nc(N)nc(N)c2n1)c1ccc(C(=O)N[C@@H](CCC(=O)O)C(=O)O)cc1` [Methotrexate hydrate], the cFRET/donor change is -0.135.

The compound `NC(N)=Nc1nc(CSCC/C(N)=N/S(N)(=O)=O)cs1` [Famotidine] displayed a cFRET/donor change of 0.138.

With `CSc1ccc2c(c1)N(CCC1CCCCN1C)c1ccccc1S2` (stereo not given) [Thioridazine hydrochloride], the cFRET/donor change came out at 0.238.

Take `NC1C=CC=C(C(=O)O)C1` (stereo not given) [Gabaculine hydrochloride]: the cFRET/donor change was -0.333.

`CC1=C(/C=C/C(C)=C/C=C/C(C)=C\C(=O)O)C(C)(C)CCC1` [13-cis-retinoic acid] gave a cFRET/donor change of 0.06.

Turning to `Nc1nc(OCc2ccccc2)c2nc[nH]c2n1` [O6-benzylguanine], the cFRET/donor change was -0.0213.

Regarding `Nc1ccc(CCNc2ncnc3c2ncn3C2OC(CO)C(O)C2O)cc1` (stereo not given) [N6-2-(4-Aminophenyl)ethyladenosine], the cFRET/donor change turned out to be 0.338.

The compound `COCCOc1cc2ncnc(Cl)c2cc1OCCOC` returned a cFRET/donor change of 0.0633.

In the case of `CC[N+](CC)(CC)CC(=O)Nc1c(C)cccc1C` [Lidocaine N-ethyl bromide quaternary salt], the cFRET/donor change was 0.292.

In the case of `CN(C)CCC(c1ccc(Br)cc1)c1ccccn1` (single isomer, unassigned; (+)) [(+)-Brompheniramine maleate], the cFRET/donor change came out at 0.114.

Take `CC(N)(Cc1ccc(O)c(O)c1)C(=O)O` (racemic) [(±)-3-(3,4-dihydroxyphenyl)-2-methyl-DL-alanine]: the cFRET/donor change was determined as 0.707.

In turn, `C#CCn1c(=O)c2c(ncn2C)n(C)c1=O` [3,7-Dimethyl-1-propargylxanthine] came in with a cFRET/donor change of 0.279.

`Clc1ccc(N2CCN(Cc3cc4ccccn4n3)CC2)cc1` yielded a cFRET/donor change of 0.359.

In the case of `O=C(O)C1=CCCN(CCON=C(c2ccccc2)c2ccccc2)C1` [NO-711 hydrochloride], the cFRET/donor change is -0.895.

With `O=C1CCCC(=O)C1C(=O)c1ccc(C(F)(F)F)cc1[N+](=O)[O-]` [Nitisinone], the cFRET/donor change turned out to be 0.0147.

In turn, `COCCc1ccc(OCC(O)CNC(C)C)cc1` (racemic) [(±)-Metoprolol (+)-tartrate] showed a cFRET/donor change of 0.301.

Regarding `CNC(=N)NCCC[C@H](N)C(=O)O` [NG-Monomethyl-L-arginine acetate], the cFRET/donor change came to 0.341.

Compound `CN1Cc2c(N)cccc2C(c2ccccc2)C1` (stereo not given) [Nomifensine maleate] displayed a cFRET/donor change of -0.996.

In turn, `NS(=O)(=O)c1ccc(-n2nc(C(F)(F)F)cc2-c2ccc(Cl)cc2)cc1` returned a cFRET/donor change of 0.219.

On to `COc1cccc(C(=O)NCCN2CCN(c3ccc(Cl)cc3)CC2)c1`, for which the cFRET/donor change stood at 0.474.

Take `O=C(c1ccccc1)c1ccc2n1CCC2C(=O)O` (stereo not given) [Ketorolac tris salt]: the cFRET/donor change came to 0.472.

In turn, `CCN(CC)CCCCCCCCOC(=O)c1cc(OC)c(OC)c(OC)c1` [TMB-8 hydrochloride] had a cFRET/donor change of 0.185.

`CCCCN(CC)c1nc(C)nc2c1c(C)cn2-c1c(C)cc(C)cc1C` yielded a cFRET/donor change of 0.353.

For the compound `O=C(O)CP(=O)(O)O` [Phosphonoacetic acid], the cFRET/donor change is 0.0105.

`Cn1ccc2cc3c(cc21)CCN3C(=O)Nc1cccnc1`: the cFRET/donor change is -0.716.

As to `C[C@@H]1C(=O)NC2=Nc3cccc(Cl)c3CN21` [Quazinone], the cFRET/donor change was -0.428.

For `Cc1cc(N)c2ccccc2[n+]1CCCCCCCCCC[n+]1c(C)cc(N)c2ccccc21` [Dequalinium chloride hydrate], the cFRET/donor change was -0.102.

On to `O=C1C(SCCO)=C(SCCO)C(=O)c2ccccc21`, for which the cFRET/donor change came out at 0.938.

On to `Nc1ccc2c3c(cccc13)C(=O)NC2=O` [4-Amino-1,8-naphthalimide], for which the cFRET/donor change is -0.148.

Consider `CN(C)CCCN1c2ccccc2CCc2ccccc21` [Imipramine hydrochloride], for which the cFRET/donor change came to 0.511.

`Cc1cccc(C(=O)NCN2CCN(c3ccccc3C#N)CC2)c1` [PD 168,077 maleate]: the cFRET/donor change was -0.217.

As for `NC(CO)C(=O)NNCc1ccc(O)c(O)c1O` (stereo not given) [Benserazide hydrochloride], the cFRET/donor change is -0.147.

The compound `Fc1ccc([C@@H]2CCNC[C@H]2COc2ccc3c(c2)OCO3)cc1` [Paroxetine hydrochloride hemihydrate (MW = 374.83)] displayed a cFRET/donor change of 0.308.

In turn, `CC1COc2c(N3CCN(C)CC3)c(F)cc3c(=O)c(C(=O)O)cn1c23` (stereo not given) [Ofloxacin] displayed a cFRET/donor change of 0.316.

Consider `O=C(O)/C=C/c1cnc[nH]1` [4-Imidazoleacrylic acid], for which the cFRET/donor change stood at 0.18.

`CC1(C)CCC2=C(O1)c1ccccc1C(=O)C2=O` [beta-Lapachone] yielded a cFRET/donor change of 1.3.

Regarding `C[C@H](c1ccc(F)cc1CCCC(=O)O)N(c1cc(F)ccc1F)S(=O)(=O)c1ccc(Cl)cc1`, the cFRET/donor change was 0.476.

`Cn1cnc([N+](=O)[O-])c1Sc1ncnc2[nH]cnc12` [Azathioprine] came in with a cFRET/donor change of 0.496.

For `O=C(CCCN1CCC(O)(c2cccc(C(F)(F)F)c2)CC1)c1ccc(F)cc1` [Trifluperidol hydrochloride], the cFRET/donor change was 0.549.

On to `COc1ccccc1N1CCN(CCCNc2cc(=O)n(C)c(=O)n2C)CC1` [Urapidil hydrochloride], for which the cFRET/donor change was -0.071.

In the case of `COCC(=O)O[C@]1(CCN(C)CCCc2nc3ccccc3[nH]2)CCc2cc(F)ccc2[C@@H]1C(C)C` [Mibefradil dihydrochloride], the cFRET/donor change is 0.902.

The compound `O=c1c2ccccc2nc2n1CCc1c-2[nH]c2ccccc12` [Rutaecarpine] came in with a cFRET/donor change of 0.0519.

Compound `CN(C)c1ccccc1CN1CCCN(Cc2ccccc2N(C)C)C1c1ccncc1` gave a cFRET/donor change of 0.598.

For the compound `O=C(O)CN(CCN(CC(=O)O)CC(=O)O)CCN(CC(=O)O)CC(=O)O` [Diethylenetriaminepentaacetic acid], the cFRET/donor change stood at 0.22.

On to `CC(C)(CO)Cc1cc(C(C)(C)C)c(O)c(C(C)(C)C)c1`, for which the cFRET/donor change amounted to 0.391.

The compound `C#CCN(C)CCCOc1ccc(Cl)cc1Cl` [Clorgyline hydrochloride] gave a cFRET/donor change of 0.701.

`CCCCCCCCCCCCCCSCC(=O)O` [Tetradecylthioacetic acid] showed a cFRET/donor change of 0.393.

Regarding `CC(=O)/C(C)=N/O` [2,3-Butanedione monoxime], the cFRET/donor change worked out at 0.0773.

`CC(C)NCC(O)c1cc(O)cc(O)c1` (stereo not given) [Metaproterenol hemisulfate] returned a cFRET/donor change of 0.113.

Consider `CC(N)C(=O)OC(C)(C)Cc1ccc(Cl)cc1` (stereo not given) [Alaproclate hydrochloride], for which the cFRET/donor change is 0.279.

`CC(=O)OCC1=C(C(=O)O)N2C(=O)[C@@H](NC(=O)Cc3cccs3)[C@H]2SC1` [Cephalothin sodium] yielded a cFRET/donor change of 0.57.

As to `Cc1nc2n(c(=O)c1CCN1CCC(c3noc4cc(F)ccc34)CC1)CCCC2O` (stereo not given) [Paliperidone], the cFRET/donor change was 0.519.

`Cc1ccccc1C(OCCN(C)C)c1ccccc1` (stereo not given) [Orphenadrine hydrochloride] displayed a cFRET/donor change of 0.148.

The compound `CC(C)NCC(O)c1ccc(O)c(O)c1` (single isomer, unassigned; (-)) [(-)-Isoproterenol hydrochloride] yielded a cFRET/donor change of 0.53.

`COc1ccccc1N1CCN(CCCCNC(=O)c2ccc3ccccc3c2)CC1` came in with a cFRET/donor change of 0.0888.

`Cc1cnc(C(=O)NCCc2ccc(S(=O)(=O)NC(=O)NC3CCCCC3)cc2)cn1` [Glipizide] returned a cFRET/donor change of -0.0676.

Turning to `N=C(N)NCCCCN` [Agmatine sulfate], the cFRET/donor change was found to be 0.125.

`C[C@H](CSC(=O)c1ccccc1)C(=O)N1C[C@@H](Sc2ccccc2)C[C@H]1C(=O)O` [Zofenopril calcium]: the cFRET/donor change was -0.00819.

`COc1ccc2c(c1)CC[C@@H]1[C@@H]2CC[C@]2(C)[C@@H](NCCCCCCN3C(=O)CCC3=O)CC[C@@H]12` displayed a cFRET/donor change of 0.325.

`CCCCNc1ccc(C(=O)OCCN(C)C)cc1` [Tetracaine hydrochloride]: the cFRET/donor change was found to be 0.0894.

The compound `O=C(O)C1(C(=O)O)CCC1.[NH2-].[NH2-].[Pt+2]` [Carboplatin] displayed a cFRET/donor change of 0.357.

Regarding `COC(=O)C(N)Cc1ccc(Cl)cc1` (racemic) [DL-p-Chlorophenylalanine methyl ester hydrochloride], the cFRET/donor change is -0.089.

`N[C@H](C(=O)O)[C@H]1C[C@@H]1C(=O)O` [(2S,1'S,2'S)-2-(carboxycyclopropyl)glycine] yielded a cFRET/donor change of 0.552.

As for `CCN1CCC[C@H]1CNC(=O)c1c(O)c(Cl)cc(Cl)c1OC` [S(+)-Raclopride L-tartrate], the cFRET/donor change is 0.365.

Compound `O=C(O)c1cccnc1C(=O)O` [Quinolinic acid] had a cFRET/donor change of 0.287.

On to `O=C(c1ccc(OCCCc2c[nH]cn2)cc1)C1CC1` [Ciproxifan hydrochloride], for which the cFRET/donor change came out at 0.224.

For the compound `CC(C)[C@H](N)C(=O)OCC(CO)OCn1cnc2c(=O)[nH]c(N)nc21` (stereo not given in full) [Valganciclovir hydrochloride hydrate], the cFRET/donor change is -0.064.
